# This is one part of the list.
# Columns and labels:
# Assay in all cases: glycan array binding signal (z-score within array); higher = stronger binding
# Settings in all cases: glycan notation: IUPAC condensed, linker removed
# [1] = molecular target: Neu5Ac(a2-3)Gal(b1-4)GlcNAc(b1-2)Man(a1-3)[Neu5Ac(a2-6)Gal(b1-4)GlcNAc(b1-2)Man(a1-6)]Man(b1-4)GlcNAc(b1-4)GlcNAc
# Summary of the method: (§1)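 The Consortium for Functional Glycomics database supplied 3228 glycan arrays, of which those lacking an available protein sequence were dropped. The binding signal, a within-array Z-score, was averaged across arrays of the same protein sequence and across linkers. Negative scores can be read as non-binding.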
# [2] = molecular target: Neu5Ac(a2-3)Gal(b1-4)GlcNAc(b1-2)[Neu5Ac(a2-3)Gal(b1-4)GlcNAc(b1-4)]Man(a1-3)[GlcNAc(b1-4)][Neu5Ac(a2-3)Gal(b1-4)GlcNAc(b1-2)[Neu5Ac(a2-3)Gal(b1-4)GlcNAc(b1-6)]Man(a1-6)]Man(b1-4)GlcNAc(b1-4)GlcNAc
# Summary of the method: as §1
# [3] = molecular target: Neu5Ac(a2-3)Gal(b1-4)GlcNAc(b1-2)[Neu5Ac(a2-3)Gal(b1-4)GlcNAc(b1-4)]Man(a1-3)[GlcNAc(b1-4)][Neu5Ac(a2-3)Gal(b1-4)GlcNAc(b1-4)Man(a1-6)]Man(b1-4)GlcNAc(b1-4)GlcNAc
# Summary of the method: as §1
# [4] = molecular target: Neu5Ac(a2-3)Gal(b1-4)GlcNAc(b1-2)[Neu5Ac(a2-3)Gal(b1-4)GlcNAc(b1-6)]Man(a1-6)[Neu5Ac(a2-3)Gal(b1-4)GlcNAc(b1-2)Man(a1-3)][GlcNAc(b1-4)]Man(b1-4)GlcNAc(b1-4)GlcNAc
# Summary of the method: as §1
# [5] = molecular target: Neu5Ac(a2-3)Gal(b1-4)GlcNAc(b1-3)Gal
# Summary of the method: as §1
# [6] = molecular target: Neu5Ac(a2-3)Gal(b1-4)GlcNAc(b1-3)Gal(b1-3)GlcNAc
# Summary of the method: as §1
# [7] = molecular target: Neu5Ac(a2-3)Gal(b1-4)GlcNAc(b1-3)Gal(b1-4)GlcNAc
# Summary of the method: as §1
# [8] = molecular target: Neu5Ac(a2-3)Gal(b1-4)GlcNAc(b1-3)Gal(b1-4)GlcNAc(b1-2)Man(a1-3)[Neu5Ac(a2-3)Gal(b1-4)GlcNAc(b1-3)Gal(b1-4)GlcNAc(b1-2)Man(a1-6)]Man(b1-4)GlcNAc(b1-4)GlcNAc
# Summary of the method: as §1
# [9] = molecular target: Neu5Ac(a2-3)Gal(b1-4)GlcNAc(b1-3)Gal(b1-4)GlcNAc(b1-3)Gal(b1-4)GlcNAc
# Summary of the method: as §1
# [10] = molecular target: Neu5Ac(a2-3)Gal(b1-4)GlcNAc(b1-3)Gal(b1-4)GlcNAc(b1-3)Gal(b1-4)GlcNAc(b1-2)Man(a1-3)[Neu5Ac(a2-3)Gal(b1-4)GlcNAc(b1-3)Gal(b1-4)GlcNAc(b1-3)Gal(b1-4)GlcNAc(b1-2)Man(a1-6)]GalNAc
# Summary of the method: as §1
# [11] = molecular target: Neu5Ac(a2-3)Gal(b1-4)GlcNAc(b1-3)Gal(b1-4)GlcNAc(b1-3)GalNAc
# Summary of the method: as §1
# [12] = molecular target: Neu5Ac(a2-3)Gal(b1-4)GlcNAc(b1-3)Gal(b1-4)GlcNAc(b1-3)[Neu5Ac(a2-3)Gal(b1-4)GlcNAc(b1-3)Gal(b1-4)GlcNAc(b1-6)]GalNAc
# Summary of the method: as §1
# [13] = molecular target: Neu5Ac(a2-3)Gal(b1-4)GlcNAc(b1-3)Gal(b1-4)GlcNAc(b1-6)[Gal(b1-3)]GalNAc
# Summary of the method: as §1
# [14] = molecular target: Neu5Ac(a2-3)Gal(b1-4)GlcNAc(b1-3)Gal(b1-4)[Fuc(a1-3)]GlcNAc
# Summary of the method: as §1
# [15] = molecular target: Neu5Ac(a2-3)Gal(b1-4)GlcNAc(b1-3)GalNAc
# Summary of the method: as §1
# [16] = molecular target: Neu5Ac(a2-3)Gal(b1-4)GlcNAc(b1-3)[Neu5Ac(a2-3)Gal(b1-4)GlcNAc(b1-6)]GalNAc
# Summary of the method: as §1
# [17] = molecular target: Neu5Ac(a2-3)Gal(b1-4)GlcNAc(b1-6)GalNAc
# Summary of the method: as §1
# [18] = molecular target: Neu5Ac(a2-3)Gal(b1-4)GlcNAc(b1-6)[Gal(b1-3)]GalNAc
# Summary of the method: as §1
# [19] = molecular target: Neu5Ac(a2-3)Gal(b1-4)GlcNAc(b1-6)[Neu5Ac(a2-3)Gal(b1-3)]GalNAc
# Summary of the method: as §1
# [20] = molecular target: Neu5Ac(a2-3)Gal(b1-4)GlcNAc6S
# Summary of the method: as §1
# [21] = molecular target: Neu5Ac(a2-3)Gal(b1-4)[Fuc(a1-3)]GlcNAc
# Summary of the method: as §1
# [22] = molecular target: Neu5Ac(a2-3)Gal(b1-4)[Fuc(a1-3)]GlcNAc(b1-2)Man
# Summary of the method: as §1
binder,measurement,setting,value
"AFL6 (Aspergillus fumigatus), Q4WKJ1 (protein) MSFHLTAEDIRIEDGHRLVARLRNADGDLQDASIDLNTCLGNDNGHFQWDGVDFSHSAQDVHFAIEGGGQVPVLRAQLANQDGEFQDADVNLSERIENINGEFVFH",glycan array binding signal (z-score),[1],-0.427
same,glycan array binding signal (z-score),[2],-0.117
same,glycan array binding signal (z-score),[3],0.321
same,glycan array binding signal (z-score),[4],-0.68
same,glycan array binding signal (z-score),[5],-0.446
same,glycan array binding signal (z-score),[6],-0.105
same,glycan array binding signal (z-score),[7],-0.632
same,glycan array binding signal (z-score),[8],0.526
same,glycan array binding signal (z-score),[9],-0.181
same,glycan array binding signal (z-score),[10],4.83
same,glycan array binding signal (z-score),[11],-0.001
same,glycan array binding signal (z-score),[12],-0.017
same,glycan array binding signal (z-score),[13],-0.146
same,glycan array binding signal (z-score),[14],-0.325
same,glycan array binding signal (z-score),[15],-0.869
same,glycan array binding signal (z-score),[16],-0.381
same,glycan array binding signal (z-score),[17],0.04
same,glycan array binding signal (z-score),[18],1.09
same,glycan array binding signal (z-score),[19],-0.203
same,glycan array binding signal (z-score),[20],-0.19
same,glycan array binding signal (z-score),[21],-0.52
same,glycan array binding signal (z-score),[22],0.108

# Taken from above (two entries):
binder,measurement,setting,value
"AFL6 (Aspergillus fumigatus), Q4WKJ1 (protein) MSFHLTAEDIRIEDGHRLVARLRNADGDLQDASIDLNTCLGNDNGHFQWDGVDFSHSAQDVHFAIEGGGQVPVLRAQLANQDGEFQDADVNLSERIENINGEFVFH",glycan array binding signal (z-score),[14],-0.325
same,glycan array binding signal (z-score),[15],-0.869
